No constants are given. Whether binding was seen depends on the method and setting. In cells and extracts the contact can be indirect. Some binding calls cover weakened binding; strength is not graded here.
Target: cYFP-tagged DnaK (E. coli HSP70) (E. coli) (UniProt P0A6Y8)
Test: split reporter; nYFP and cYFP fusions co-expressed from one pRSF-Duet1 construct in E. coli cells; YFP fluorescence seen by fluorescence microscopy

Chains of the proteins cited; added tags and fusions are not shown.
UniProt P0A6Y8: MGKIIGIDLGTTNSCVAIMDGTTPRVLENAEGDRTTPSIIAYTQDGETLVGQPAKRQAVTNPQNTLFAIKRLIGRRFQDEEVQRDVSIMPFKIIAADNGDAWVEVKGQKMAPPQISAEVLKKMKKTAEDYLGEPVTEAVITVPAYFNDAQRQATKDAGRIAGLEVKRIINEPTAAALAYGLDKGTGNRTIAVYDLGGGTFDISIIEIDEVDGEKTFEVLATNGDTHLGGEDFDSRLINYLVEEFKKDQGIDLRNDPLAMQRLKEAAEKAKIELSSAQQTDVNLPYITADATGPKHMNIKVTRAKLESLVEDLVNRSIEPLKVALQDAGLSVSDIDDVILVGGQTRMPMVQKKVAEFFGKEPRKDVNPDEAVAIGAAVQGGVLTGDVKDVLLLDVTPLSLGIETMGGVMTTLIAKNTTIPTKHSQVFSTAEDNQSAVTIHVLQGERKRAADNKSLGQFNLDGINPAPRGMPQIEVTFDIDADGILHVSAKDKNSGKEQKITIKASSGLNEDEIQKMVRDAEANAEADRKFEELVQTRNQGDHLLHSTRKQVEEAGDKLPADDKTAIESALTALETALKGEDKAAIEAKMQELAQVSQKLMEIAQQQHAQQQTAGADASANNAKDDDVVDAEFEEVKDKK
UniProt P08622: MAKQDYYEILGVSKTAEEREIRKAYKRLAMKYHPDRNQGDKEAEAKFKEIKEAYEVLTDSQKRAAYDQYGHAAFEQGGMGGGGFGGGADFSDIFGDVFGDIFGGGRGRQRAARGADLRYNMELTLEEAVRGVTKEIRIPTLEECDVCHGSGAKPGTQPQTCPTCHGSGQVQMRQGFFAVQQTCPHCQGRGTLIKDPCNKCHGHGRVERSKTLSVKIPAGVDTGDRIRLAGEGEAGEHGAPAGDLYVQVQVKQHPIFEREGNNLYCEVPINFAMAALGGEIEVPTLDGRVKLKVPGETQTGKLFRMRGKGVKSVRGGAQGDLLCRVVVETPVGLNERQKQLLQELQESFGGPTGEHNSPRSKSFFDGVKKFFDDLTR

binding: binds
Substance: nYFP-tagged DnaJ (E. coli HSP40) (from UniProt P08622 1-376)

From PMC10604809
